In paper PMC3524764:
These are yes or no findings as the source states them, for the method shown. Binding seen in cells or lysates may run through a third protein. Some binding calls cover weakened binding; strength is not graded here.

The chains behind the UniProt entries cited, without tags or fusion partners.
UniProt O88704: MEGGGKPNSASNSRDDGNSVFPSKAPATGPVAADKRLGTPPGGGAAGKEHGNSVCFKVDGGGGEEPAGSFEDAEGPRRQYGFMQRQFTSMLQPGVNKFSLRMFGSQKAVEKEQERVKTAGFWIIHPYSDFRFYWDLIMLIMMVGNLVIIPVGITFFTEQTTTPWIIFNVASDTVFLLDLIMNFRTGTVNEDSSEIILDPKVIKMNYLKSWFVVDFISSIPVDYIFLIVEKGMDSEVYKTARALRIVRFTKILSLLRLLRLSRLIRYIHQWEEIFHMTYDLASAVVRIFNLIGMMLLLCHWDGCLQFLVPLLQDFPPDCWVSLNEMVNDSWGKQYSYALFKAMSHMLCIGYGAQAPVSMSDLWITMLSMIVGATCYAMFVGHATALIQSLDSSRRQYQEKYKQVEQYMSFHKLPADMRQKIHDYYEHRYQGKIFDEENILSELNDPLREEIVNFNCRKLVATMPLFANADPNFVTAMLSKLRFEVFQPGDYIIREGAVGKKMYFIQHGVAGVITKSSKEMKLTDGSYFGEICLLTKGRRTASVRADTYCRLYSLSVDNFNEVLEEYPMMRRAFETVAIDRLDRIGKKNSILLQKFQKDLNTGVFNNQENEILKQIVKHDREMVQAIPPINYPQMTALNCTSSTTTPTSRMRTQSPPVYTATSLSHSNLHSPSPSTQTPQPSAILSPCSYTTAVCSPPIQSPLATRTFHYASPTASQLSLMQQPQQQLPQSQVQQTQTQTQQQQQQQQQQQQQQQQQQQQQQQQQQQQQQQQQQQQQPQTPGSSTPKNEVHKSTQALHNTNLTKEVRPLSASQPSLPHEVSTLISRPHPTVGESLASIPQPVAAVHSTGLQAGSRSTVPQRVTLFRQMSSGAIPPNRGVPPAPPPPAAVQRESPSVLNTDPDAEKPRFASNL

Columns and labels:
[1] = target: HCN1 (hyperpolarization-activated cyclic nucleotide gated channel 1), endogenous in mouse brain (mouse (endogenous in mouse brain)) (UniProt O88704); test: co-IP; lysate of the EC-rich cortex region (from five mice) of HCN1+/+ and HCN1-/- mice in HBS-T lysis buffer; precipitated with anti-HCN1 antibody, 4°C 2 h, Dynabeads Protein G; immunoblot
[2] = target: HCN1 (hyperpolarization-activated cyclic nucleotide gated channel 1), endogenous in mouse brain (mouse (endogenous in mouse brain)) (UniProt O88704); test: co-IP; lysate of the cortex of wild type mice (13 weeks old in Figure 3I-K) in HBS-T lysis buffer (10 mM HEPES pH 7.6, 150 mM NaCl, 5 mM EDTA, 0.5% Triton X-100); precipitated with anti-HCN1, anti-X11 or anti-X11L/Mint2 antibody, 4°C 2 h, Dynabeads Protein G; immunoblot; HCN1-/-, X11-/- or X11L-/- mice as controls

| Binder | binding [1] | binding [2] |
| --- | --- | --- |
| X11 (X11α/Mint1), endogenous in mouse brain (protein, UniProt B2RUJ5 1-842) MNHLEGSAEVEVADEAPGGEVNESVEADLEHPEVVEGQQPSPSPPPPAGHEPEDHRGHPAPPPPPPPQEEEEEERGECLARSASTESGFHNHTDTAEGDVLAAARDGYEAERAQDADDESAYAVQYRPEAEEYTEQAEAEHVEAAQRRALPNHLHFHSLEHEEAMNAAYSGYVYTHRLFHRAEDEPYAEPYADYGGLQEHVYEEIGDAPELEARDGLRLYERERDEAAAYRQEALGARLHHYDERSDGESDSPEKEAEFAPYPRMDSYEQEEDIDQIVAEVKQSMSSQSLDKAAEDMPEAEQDLERAPTPGGGHPDSPGLPAPAGQQQRVVGTPGGSEVGQRYSKEKRDAISLAIKDIKEAIEEVKTRTIRSPYTPDEPKEPIWVMRQDISPTRDCDDQRPVDGDSPSPGSSSPLGAESSSIPLHPGDPTEASTNKESRKSLASFPTYVEVPGPCDPEDLIDGIIFAANYLGSTQLLSDKTPSKNVRMMQAQEAVSRIKTAQKLAKSRKKAPEGESQPMTEVDLFISTQRIKVLNADTQEPMMDHPLRTISYIADIGNIVVLMARRRMPRSNSQENVEASHPSQDGKRQYKMICHVFESEDAQLIAQSIGQAFSVAYQEFLRANGINPEDLSQKEYSDLLNTQDMYNDDLIHFSKSENCKDVFIEKQKGEILGVVIVESGWGSILPTVIIANMMHGGPAEKSGKLNIGDQIMSINGTSLVGLPLSTCQSIIKGLKNQSRVKLNIVRCPPVTTVLIRRPDLRYQLGFSVQNGIICSLMRGGIAERGGVRVGHRIIEINGQSVVATPHEKIVHILSNAVGEIHMKTMPAAMYRLLTAQEQPVYI | binds | binds |
| X11-like protein (X11L/X11β/Mint2), endogenous in mouse brain (protein, UniProt P98084 1-750) MAHRKRQSTASSMLDHRARPGPIPHDQEPESEDTELPLESYVPTGLELGTLRPESPTPEEQECHNHSPDGDSSSDYVNNTSEEEDYDEGLPEEEEGVTYYIRYCPEDDSYLEGMDCNGEEYIAHGAHPVDTDECQEAVEDWTDSVGPHTHSHGAENSQEYPDGHLPIPEDDPTVLEVHDQEEDGHYCSSKESYQDYYPPETNGNTGGASPYRMRRGDGDLEEQEEDIDQIVAEIKMSLSMTSITSASEASPEHMPELDPGDSTEACPPSDTGHGPGRQEARPKSLNLPPEVKHPGDLQRGLKTKTRTPEERPKWPQEQVCNGLEQPRKQQRSDLNGPTDNNNIPETKKVASFPSFVAVPGPCEAEDLIDGIIFAANYLGSTQLLSERNPSKNIRMMQAQEAVSRVKRMQKAAKIKKKANSEGDAQTLTEVDLFISTQRIKVLNADTQETMMDHALRTISYIADIGNIVVLMARRRMPRSASQDCIETTPGAQEGKKQYKMICHVFESEDAQLIAQSIGQAFSVAYQEFLRANGINPEDLSQKEYSDIINTQEMYNDDLIHFSNSENCKELQLEKHKGEILGVVVVESGWGSILPTVILANMMNGGPAARSGKLSIGDQIMSINGTSLVGLPLATCQGIIKGLKNQTQVKLNIVSCPPVTTVLIKRPDLKYQLGFSVQNGIICSLMRGGIAERGGVRVGHRIIEINGQSVVATAHEKIVQALSNSVGEIHMKTMPAAMFRLLTGQETPLYI | binds | binds |
